Data as given in PubChem BioAssay AID1508597 (Cure First, 2020)

Aim: 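Genes whose silencing sensitises or protects ovarian cancer cells against rucaparib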 (primary screen)
System: human ovarian carcinoma lines grown from tumours: OCI-P5x (papillary serous) and OCI-C5x (clear cell)
Reagents: siRNA pool against human genes, 1.25 pmol siRNA per well
Time to read-out: 72 h or 96 h, depending on the cell culture
Treatment: rucaparib 20 µM (about IC30) or vehicle, present until read-out
Read-out: 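Luminescent ATP-based viability assay read 72 or 96 h after transfection, depending on culture, given as normalised percent viability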
Direction: viability, normalised: higher = more viable cells remaining
Hit rule: 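a well counts as a hit if its normalised viability is under 80 percent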
Calls: active = viability under 80%; inactive = viability 80% or more
The deposit covers about 2,100 reagents; below is a random part of them. 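Calls flag viability under 80% in either arm, not effects specific to rucaparib; the reference for percent is not stated.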 Entries without a mark were called inactive. Some reagents were tested in more than one well and are listed for each. Not given: the 100% reference.

gene knocked down	rucaparib or vehicle	cell line	technical replicate	viability, normalised (%)
AURKB	Rucaparib	OCI-C5x (clear cell)	1	62.6 (active)
AURKB	Rucaparib	OCI-C5x (clear cell)	1	51.8 (active)
AURKB	Rucaparib	OCI-C5x (clear cell)	2	47.4 (active)
AURKB	Rucaparib	OCI-C5x (clear cell)	2	61.5 (active)
AURKB	Rucaparib	OCI-C5x (clear cell)	3	39.1 (active)
AURKB	Rucaparib	OCI-C5x (clear cell)	3	59.6 (active)
AURKB	Rucaparib	OCI-P5x (serous)	1	61.3 (active)
AURKB	Rucaparib	OCI-P5x (serous)	1	103
AURKB	Rucaparib	OCI-P5x (serous)	2	113
AURKB	Rucaparib	OCI-P5x (serous)	2	61.1 (active)
AURKB	Rucaparib	OCI-P5x (serous)	3	102
AURKB	Rucaparib	OCI-P5x (serous)	3	61.6 (active)
AURKB	Vehicle	OCI-C5x (clear cell)	1	33.4 (active)
AURKB	Vehicle	OCI-C5x (clear cell)	1	61 (active)
AURKB	Vehicle	OCI-C5x (clear cell)	2	42.6 (active)
AURKB	Vehicle	OCI-C5x (clear cell)	2	52.3 (active)
AURKB	Vehicle	OCI-C5x (clear cell)	3	69 (active)
AURKB	Vehicle	OCI-C5x (clear cell)	3	31.9 (active)
AURKB	Vehicle	OCI-P5x (serous)	1	68.5 (active)
AURKB	Vehicle	OCI-P5x (serous)	1	61.6 (active)
AURKB	Vehicle	OCI-P5x (serous)	2	76.4 (active)
AURKB	Vehicle	OCI-P5x (serous)	2	81.1
AURKB	Vehicle	OCI-P5x (serous)	3	65.5 (active)
AURKB	Vehicle	OCI-P5x (serous)	3	67.8 (active)
TDRD9	Rucaparib	OCI-C5x (clear cell)	1	56.6 (active)
TDRD9	Rucaparib	OCI-C5x (clear cell)	2	59.6 (active)
TDRD9	Rucaparib	OCI-C5x (clear cell)	3	48.6 (active)
TDRD9	Rucaparib	OCI-P5x (serous)	1	76 (active)
TDRD9	Rucaparib	OCI-P5x (serous)	2	71.8 (active)
TDRD9	Rucaparib	OCI-P5x (serous)	3	71.2 (active)
TDRD9	Vehicle	OCI-C5x (clear cell)	1	55.7 (active)
TDRD9	Vehicle	OCI-C5x (clear cell)	2	56.2 (active)
TDRD9	Vehicle	OCI-C5x (clear cell)	3	60.3 (active)
TDRD9	Vehicle	OCI-P5x (serous)	1	82.6
TDRD9	Vehicle	OCI-P5x (serous)	2	62.4 (active)
TDRD9	Vehicle	OCI-P5x (serous)	3	78.4 (active)
PAX5	Rucaparib	OCI-C5x (clear cell)	1	30.7 (active)
PAX5	Rucaparib	OCI-C5x (clear cell)	2	32.6 (active)
PAX5	Rucaparib	OCI-C5x (clear cell)	3	23.8 (active)
PAX5	Rucaparib	OCI-P5x (serous)	1	41.8 (active)
PAX5	Rucaparib	OCI-P5x (serous)	2	37.8 (active)
PAX5	Rucaparib	OCI-P5x (serous)	3	46.3 (active)
PAX5	Vehicle	OCI-C5x (clear cell)	1	32 (active)
PAX5	Vehicle	OCI-C5x (clear cell)	2	22.5 (active)
PAX5	Vehicle	OCI-C5x (clear cell)	3	31.7 (active)
PAX5	Vehicle	OCI-P5x (serous)	1	47.9 (active)
PAX5	Vehicle	OCI-P5x (serous)	2	64.9 (active)
PAX5	Vehicle	OCI-P5x (serous)	3	64.9 (active)
SGF29	Rucaparib	OCI-C5x (clear cell)	1	97.6
SGF29	Rucaparib	OCI-C5x (clear cell)	2	58.6 (active)
SGF29	Rucaparib	OCI-C5x (clear cell)	3	101
SGF29	Rucaparib	OCI-P5x (serous)	1	71.8 (active)
SGF29	Rucaparib	OCI-P5x (serous)	2	87.8
SGF29	Rucaparib	OCI-P5x (serous)	3	104
SGF29	Vehicle	OCI-C5x (clear cell)	1	85.7
SGF29	Vehicle	OCI-C5x (clear cell)	2	89
SGF29	Vehicle	OCI-C5x (clear cell)	3	91.2
SGF29	Vehicle	OCI-P5x (serous)	1	84.4
SGF29	Vehicle	OCI-P5x (serous)	2	66 (active)
SGF29	Vehicle	OCI-P5x (serous)	3	86.1

7 entries from above, set out differently:
SGF29, rucaparib or vehicle Rucaparib, cell line OCI-C5x (clear cell), technical replicate 3
- viability, normalised (%): 101

SGF29, rucaparib or vehicle Rucaparib, cell line OCI-P5x (serous), technical replicate 1
- viability, normalised (%): 71.8 (active)

SGF29, rucaparib or vehicle Rucaparib, cell line OCI-P5x (serous), technical replicate 2
- viability, normalised (%): 87.8

SGF29, rucaparib or vehicle Rucaparib, cell line OCI-P5x (serous), technical replicate 3
- viability, normalised (%): 104

SGF29, rucaparib or vehicle Vehicle, cell line OCI-C5x (clear cell), technical replicate 1
- viability, normalised (%): 85.7

SGF29, rucaparib or vehicle Vehicle, cell line OCI-C5x (clear cell), technical replicate 2
- viability, normalised (%): 89

SGF29, rucaparib or vehicle Vehicle, cell line OCI-C5x (clear cell), technical replicate 3
- viability, normalised (%): 91.2
